Our source for the binding values is publication PMC9392723.

Results are given in words; binding and its absence hold for the method and conditions named. In cells and extracts the contact can be indirect. Some results given as binding are weak or reduced against the parent protein; the word gives no strength. Tags and fused reporters may be left off the sequences shown.

Holding throughout (test): co-IP; HEK293 cells transfected with HA-PAHwt, HA-R241C or HA-R243Q along with Flag-USP19; lysed in IP lysis buffer (150 mM NaCl, 1 mM EDTA, 25 mM Tris-HCl pH 7.4, 1% NP-40, 5% glycerol); lysates incubated with anti-Flag or anti-HA antibody at 4 °C overnight, Protein A/G Plus Agarose beads, immunoblot with reciprocal antibodies
A general note: In western blotting, separated proteins are transferred to a membrane and probed.

One assay deals with T1, Flag-tagged USP19 (UniProt O94966).
T1 sequence: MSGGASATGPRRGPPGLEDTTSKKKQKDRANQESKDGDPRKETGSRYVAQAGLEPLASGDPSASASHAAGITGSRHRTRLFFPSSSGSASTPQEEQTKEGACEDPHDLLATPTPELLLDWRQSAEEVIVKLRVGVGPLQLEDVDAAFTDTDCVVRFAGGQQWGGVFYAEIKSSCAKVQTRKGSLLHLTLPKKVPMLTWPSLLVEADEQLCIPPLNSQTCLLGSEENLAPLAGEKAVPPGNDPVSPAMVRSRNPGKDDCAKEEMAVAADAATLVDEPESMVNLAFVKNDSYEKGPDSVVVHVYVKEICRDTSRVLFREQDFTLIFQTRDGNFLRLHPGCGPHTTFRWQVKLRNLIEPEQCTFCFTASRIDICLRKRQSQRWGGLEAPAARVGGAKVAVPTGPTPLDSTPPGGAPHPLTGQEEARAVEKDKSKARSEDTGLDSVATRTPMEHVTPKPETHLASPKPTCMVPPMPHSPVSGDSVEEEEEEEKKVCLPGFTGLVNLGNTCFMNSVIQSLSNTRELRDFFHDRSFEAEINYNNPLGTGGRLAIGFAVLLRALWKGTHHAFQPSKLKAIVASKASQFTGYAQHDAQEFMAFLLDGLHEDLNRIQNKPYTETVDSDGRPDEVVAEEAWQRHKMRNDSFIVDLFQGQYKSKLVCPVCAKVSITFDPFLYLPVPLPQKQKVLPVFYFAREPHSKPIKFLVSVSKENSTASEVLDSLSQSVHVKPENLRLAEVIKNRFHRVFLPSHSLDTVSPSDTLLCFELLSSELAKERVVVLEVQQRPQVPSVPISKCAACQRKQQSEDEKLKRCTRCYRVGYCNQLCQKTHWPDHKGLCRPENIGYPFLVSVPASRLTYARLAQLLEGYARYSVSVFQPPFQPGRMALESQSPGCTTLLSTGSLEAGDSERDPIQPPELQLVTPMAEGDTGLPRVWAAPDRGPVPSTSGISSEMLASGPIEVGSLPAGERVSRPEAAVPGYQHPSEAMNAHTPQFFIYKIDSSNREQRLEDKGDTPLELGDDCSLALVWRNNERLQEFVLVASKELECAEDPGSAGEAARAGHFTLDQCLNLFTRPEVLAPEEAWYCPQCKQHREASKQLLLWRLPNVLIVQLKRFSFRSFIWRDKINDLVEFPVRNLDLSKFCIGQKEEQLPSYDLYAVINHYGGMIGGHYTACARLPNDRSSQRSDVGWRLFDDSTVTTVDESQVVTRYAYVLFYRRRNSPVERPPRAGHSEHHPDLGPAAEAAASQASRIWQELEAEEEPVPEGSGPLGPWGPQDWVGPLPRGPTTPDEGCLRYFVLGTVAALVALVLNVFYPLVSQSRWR

The target in assay [1] is T2, HA-tagged PAH R243Q (human) (UniProt P00439).
T2 sequence: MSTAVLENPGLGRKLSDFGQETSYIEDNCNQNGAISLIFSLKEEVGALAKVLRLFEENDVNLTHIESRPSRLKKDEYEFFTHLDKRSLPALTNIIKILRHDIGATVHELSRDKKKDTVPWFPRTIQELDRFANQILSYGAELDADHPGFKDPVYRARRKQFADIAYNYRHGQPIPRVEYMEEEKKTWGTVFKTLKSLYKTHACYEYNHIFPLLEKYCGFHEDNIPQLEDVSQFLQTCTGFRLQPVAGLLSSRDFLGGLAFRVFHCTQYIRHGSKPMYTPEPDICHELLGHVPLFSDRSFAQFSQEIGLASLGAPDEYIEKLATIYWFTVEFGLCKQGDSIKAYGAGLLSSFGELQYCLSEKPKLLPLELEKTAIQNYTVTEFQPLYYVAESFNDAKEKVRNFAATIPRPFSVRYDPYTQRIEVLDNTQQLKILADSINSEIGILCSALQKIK

In assay [2] the target is T3, HA-tagged PAH R241C (human) (UniProt P00439).
T3 sequence: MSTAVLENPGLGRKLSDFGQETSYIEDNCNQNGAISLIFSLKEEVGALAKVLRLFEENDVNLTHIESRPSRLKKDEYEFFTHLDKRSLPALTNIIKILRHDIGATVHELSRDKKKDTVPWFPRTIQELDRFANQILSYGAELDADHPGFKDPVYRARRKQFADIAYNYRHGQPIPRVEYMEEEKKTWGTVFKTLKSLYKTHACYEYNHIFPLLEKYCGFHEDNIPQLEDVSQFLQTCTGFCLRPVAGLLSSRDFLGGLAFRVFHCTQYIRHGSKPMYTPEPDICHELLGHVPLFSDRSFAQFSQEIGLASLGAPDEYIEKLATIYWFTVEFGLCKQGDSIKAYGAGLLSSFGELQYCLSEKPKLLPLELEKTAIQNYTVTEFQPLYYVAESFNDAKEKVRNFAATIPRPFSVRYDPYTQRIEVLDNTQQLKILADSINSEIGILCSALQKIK

Assay [3] deals with T4, HA-tagged PAH wild-type (human) (UniProt P00439).
T4 sequence: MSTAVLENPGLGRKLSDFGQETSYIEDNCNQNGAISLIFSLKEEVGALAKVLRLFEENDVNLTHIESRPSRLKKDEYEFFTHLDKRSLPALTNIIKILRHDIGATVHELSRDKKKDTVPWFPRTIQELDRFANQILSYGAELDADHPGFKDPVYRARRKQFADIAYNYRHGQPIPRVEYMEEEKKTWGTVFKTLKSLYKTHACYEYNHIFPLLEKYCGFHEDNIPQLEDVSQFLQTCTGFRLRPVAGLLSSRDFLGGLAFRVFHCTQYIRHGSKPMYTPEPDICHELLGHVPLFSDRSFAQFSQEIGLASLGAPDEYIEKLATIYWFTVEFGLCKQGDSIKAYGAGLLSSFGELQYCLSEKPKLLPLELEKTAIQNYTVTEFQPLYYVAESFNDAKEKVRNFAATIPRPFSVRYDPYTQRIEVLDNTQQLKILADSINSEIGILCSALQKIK

B1: HA-tagged PAH wild-type (enzyme, UniProt P00439 1-452)
chain: MSTAVLENPGLGRKLSDFGQETSYIEDNCNQNGAISLIFSLKEEVGALAKVLRLFEENDVNLTHIESRPSRLKKDEYEFFTHLDKRSLPALTNIIKILRHDIGATVHELSRDKKKDTVPWFPRTIQELDRFANQILSYGAELDADHPGFKDPVYRARRKQFADIAYNYRHGQPIPRVEYMEEEKKTWGTVFKTLKSLYKTHACYEYNHIFPLLEKYCGFHEDNIPQLEDVSQFLQTCTGFRLRPVAGLLSSRDFLGGLAFRVFHCTQYIRHGSKPMYTPEPDICHELLGHVPLFSDRSFAQFSQEIGLASLGAPDEYIEKLATIYWFTVEFGLCKQGDSIKAYGAGLLSSFGELQYCLSEKPKLLPLELEKTAIQNYTVTEFQPLYYVAESFNDAKEKVRNFAATIPRPFSVRYDPYTQRIEVLDNTQQLKILADSINSEIGILCSALQKIK
For the molecule B1, in the assay with Flag-tagged USP19, the binding entry is listed as “binds”.

B2: HA-tagged PAH R241C (enzyme, UniProt P00439 1-452)
chain: MSTAVLENPGLGRKLSDFGQETSYIEDNCNQNGAISLIFSLKEEVGALAKVLRLFEENDVNLTHIESRPSRLKKDEYEFFTHLDKRSLPALTNIIKILRHDIGATVHELSRDKKKDTVPWFPRTIQELDRFANQILSYGAELDADHPGFKDPVYRARRKQFADIAYNYRHGQPIPRVEYMEEEKKTWGTVFKTLKSLYKTHACYEYNHIFPLLEKYCGFHEDNIPQLEDVSQFLQTCTGFCLRPVAGLLSSRDFLGGLAFRVFHCTQYIRHGSKPMYTPEPDICHELLGHVPLFSDRSFAQFSQEIGLASLGAPDEYIEKLATIYWFTVEFGLCKQGDSIKAYGAGLLSSFGELQYCLSEKPKLLPLELEKTAIQNYTVTEFQPLYYVAESFNDAKEKVRNFAATIPRPFSVRYDPYTQRIEVLDNTQQLKILADSINSEIGILCSALQKIK
On to B2, for which the binding entry with Flag-tagged USP19 is listed as “binds”.

B3: HA-tagged PAH R243Q (enzyme, UniProt P00439 1-452)
chain: MSTAVLENPGLGRKLSDFGQETSYIEDNCNQNGAISLIFSLKEEVGALAKVLRLFEENDVNLTHIESRPSRLKKDEYEFFTHLDKRSLPALTNIIKILRHDIGATVHELSRDKKKDTVPWFPRTIQELDRFANQILSYGAELDADHPGFKDPVYRARRKQFADIAYNYRHGQPIPRVEYMEEEKKTWGTVFKTLKSLYKTHACYEYNHIFPLLEKYCGFHEDNIPQLEDVSQFLQTCTGFRLQPVAGLLSSRDFLGGLAFRVFHCTQYIRHGSKPMYTPEPDICHELLGHVPLFSDRSFAQFSQEIGLASLGAPDEYIEKLATIYWFTVEFGLCKQGDSIKAYGAGLLSSFGELQYCLSEKPKLLPLELEKTAIQNYTVTEFQPLYYVAESFNDAKEKVRNFAATIPRPFSVRYDPYTQRIEVLDNTQQLKILADSINSEIGILCSALQKIK
As to B3, the binding result in the assay with Flag-tagged USP19 is “binds”.

B4: Flag-tagged USP19 (enzyme, UniProt O94966 1-1318)
chain: MSGGASATGPRRGPPGLEDTTSKKKQKDRANQESKDGDPRKETGSRYVAQAGLEPLASGDPSASASHAAGITGSRHRTRLFFPSSSGSASTPQEEQTKEGACEDPHDLLATPTPELLLDWRQSAEEVIVKLRVGVGPLQLEDVDAAFTDTDCVVRFAGGQQWGGVFYAEIKSSCAKVQTRKGSLLHLTLPKKVPMLTWPSLLVEADEQLCIPPLNSQTCLLGSEENLAPLAGEKAVPPGNDPVSPAMVRSRNPGKDDCAKEEMAVAADAATLVDEPESMVNLAFVKNDSYEKGPDSVVVHVYVKEICRDTSRVLFREQDFTLIFQTRDGNFLRLHPGCGPHTTFRWQVKLRNLIEPEQCTFCFTASRIDICLRKRQSQRWGGLEAPAARVGGAKVAVPTGPTPLDSTPPGGAPHPLTGQEEARAVEKDKSKARSEDTGLDSVATRTPMEHVTPKPETHLASPKPTCMVPPMPHSPVSGDSVEEEEEEEKKVCLPGFTGLVNLGNTCFMNSVIQSLSNTRELRDFFHDRSFEAEINYNNPLGTGGRLAIGFAVLLRALWKGTHHAFQPSKLKAIVASKASQFTGYAQHDAQEFMAFLLDGLHEDLNRIQNKPYTETVDSDGRPDEVVAEEAWQRHKMRNDSFIVDLFQGQYKSKLVCPVCAKVSITFDPFLYLPVPLPQKQKVLPVFYFAREPHSKPIKFLVSVSKENSTASEVLDSLSQSVHVKPENLRLAEVIKNRFHRVFLPSHSLDTVSPSDTLLCFELLSSELAKERVVVLEVQQRPQVPSVPISKCAACQRKQQSEDEKLKRCTRCYRVGYCNQLCQKTHWPDHKGLCRPENIGYPFLVSVPASRLTYARLAQLLEGYARYSVSVFQPPFQPGRMALESQSPGCTTLLSTGSLEAGDSERDPIQPPELQLVTPMAEGDTGLPRVWAAPDRGPVPSTSGISSEMLASGPIEVGSLPAGERVSRPEAAVPGYQHPSEAMNAHTPQFFIYKIDSSNREQRLEDKGDTPLELGDDCSLALVWRNNERLQEFVLVASKELECAEDPGSAGEAARAGHFTLDQCLNLFTRPEVLAPEEAWYCPQCKQHREASKQLLLWRLPNVLIVQLKRFSFRSFIWRDKINDLVEFPVRNLDLSKFCIGQKEEQLPSYDLYAVINHYGGMIGGHYTACARLPNDRSSQRSDVGWRLFDDSTVTTVDESQVVTRYAYVLFYRRRNSPVERPPRAGHSEHHPDLGPAAEAAASQASRIWQELEAEEEPVPEGSGPLGPWGPQDWVGPLPRGPTTPDEGCLRYFVLGTVAALVALVLNVFYPLVSQSRWR
For B4, the binding result in assay [1], in assay [2] and in assay [3] was “binds” each time.
